# Reference: the supplement of paper PMC8728848
# The other results are listed elsewhere or left out.
# B1: PX14351B-bth-512-36-512 (Bacteroides thetaiotaomicron) (protein)
# chain: ASETQQWKTLEDTRSALMGVYGLTRAALADNNTHWICGDLRKGDFTVYKRSDLQAVSDNELNKPYDLLKKVSNWRRFYAVINAASVFMEKAPRTVELDRSYSEQNLKYDIAQVRALRAFAYFYMVRIWGDVPLVTYSYDNGTFPSMPRTDAQTVLSYAKAELLTAIEDLPYQYGTQTNLYYGSYGAQWQGKLFNKLSAYSVLAHICAWQGNYAEAETYSAFIIDHASEINAKYTSIADLTSETGLFYSNASVKGSRILGFNFAHNDNEATQSGHLEQLTLAYPLVQKSYPEIYISKDSLFSIFTNFDDLRFGIIDTIKYSSYYVQNLNEETPVFSKIKIIQDGSAKDNDFGVFGSSIVFTRLEDITLLRAEALCALNRSTEAVSYLNMIRTNRGLREVSFKKDFGNNRESLIAEIFEERRRELMGEGWRWYDLVRRQKLMKDNEAFLRLISSGGIYWPVSEDIITANSQIEQNEFWK
# Assays:
# Assay in all cases: glycan array binding signal (z-score within array); higher = stronger binding
# Conditions in all cases: glycan notation: IUPAC condensed, linker removed
# [1] = biological target: Fuc(a1-2)Gal(b1-4)GlcNAc(b1-3)GalNAc
# How it was run: (§1)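 The Consortium for Functional Glycomics database supplied 3228 glycan arrays, of which those lacking an available protein sequence were dropped. The binding signal, a within-array Z-score, was averaged across arrays of the same protein sequence and across linkers. Negative scores can be read as non-binding.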
# [2] = biological target: Fuc(a1-2)Gal(b1-4)GlcNAc(b1-3)[Fuc(a1-2)Gal(b1-4)GlcNAc(b1-6)]GalNAc
# How it was run: as §1
# [3] = biological target: Fuc(a1-2)Gal(b1-4)GlcNAc(b1-3)[Fuc(a1-3)[Gal(b1-4)]GlcNAc(b1-6)]Gal(b1-4)Glc
# How it was run: as §1
# [4] = biological target: Fuc(a1-2)Gal(b1-4)GlcNAc(b1-6)GalNAc
# How it was run: as §1
# [5] = biological target: Fuc(a1-2)Gal(b1-4)GlcNAc6S
# How it was run: as §1
# [6] = biological target: Fuc(a1-2)Gal(b1-4)[Fuc(a1-3)]GlcNAc
# How it was run: as §1
# [7] = biological target: Fuc(a1-2)Gal(b1-4)[Fuc(a1-3)]GlcNAc(b1-2)Man(a1-3)[Fuc(a1-2)Gal(b1-4)[Fuc(a1-3)]GlcNAc(b1-2)Man(a1-6)]Man(b1-4)GlcNAc(b1-4)[Fuc(a1-6)]GlcNAc
# How it was run: as §1
# [8] = biological target: Fuc(a1-2)Gal(b1-4)[Fuc(a1-3)]GlcNAc(b1-2)[Fuc(a1-2)Gal(b1-4)[Fuc(a1-3)]GlcNAc(b1-4)]Man(a1-3)[Fuc(a1-2)Gal(b1-4)[Fuc(a1-3)]GlcNAc(b1-2)Man(a1-6)]Man(b1-4)GlcNAc(b1-4)GlcNAc
# How it was run: as §1
# [9] = biological target: Fuc(a1-2)Gal(b1-4)[Fuc(a1-3)]GlcNAc(b1-3)Gal(b1-4)[Fuc(a1-3)]GlcNAc
# How it was run: as §1
# [10] = biological target: Fuc(a1-2)Gal(b1-4)[Fuc(a1-3)]GlcNAc(b1-3)Gal(b1-4)[Fuc(a1-3)]GlcNAc(b1-3)Gal(b1-4)[Fuc(a1-3)]GlcNAc
# How it was run: as §1
# [11] = biological target: Fuc(a1-2)Gal(b1-4)[Fuc(a1-3)]GlcNAc(b1-3)GalNAc
# How it was run: as §1
# [12] = biological target: Fuc(a1-2)Gal3S(b1-4)GlcNAc
# How it was run: as §1
# [13] = biological target: Fuc(a1-2)Gal6S(b1-3)GlcNAc
# How it was run: as §1
# [14] = biological target: Fuc(a1-2)Gal6S(b1-3)GlcNAc6S
# How it was run: as §1
# Fuc(a1-2)Gal6S(b1-4)Glc = biological target: Fuc(a1-2)Gal6S(b1-4)Glc
# How it was run: as §1
# Fuc(a1-2)[Gal(a1-3)]Gal = biological target: Fuc(a1-2)[Gal(a1-3)]Gal
# How it was run: as §1
# [15] = biological target: Fuc(a1-2)[Gal(a1-3)]Gal(b1-3)GalNAc
# How it was run: as §1
# [16] = biological target: Fuc(a1-2)[Gal(a1-3)]Gal(b1-3)GalNAc(b1-3)Gal(a1-4)Gal(b1-4)Glc
# How it was run: as §1
# [17] = biological target: Fuc(a1-2)[Gal(a1-3)]Gal(b1-3)GlcNAc
# How it was run: as §1
# [18] = biological target: Fuc(a1-2)[Gal(a1-3)]Gal(b1-3)GlcNAc(b1-2)Man(a1-3)[Fuc(a1-2)[Gal(a1-3)]Gal(b1-3)GlcNAc(b1-2)Man(a1-6)]Man(b1-4)GlcNAc(b1-4)GlcNAc
# How it was run: as §1
# [19] = biological target: Fuc(a1-2)[Gal(a1-3)]Gal(b1-3)GlcNAc(b1-2)Man(a1-3)[Fuc(a1-2)[Gal(a1-3)]Gal(b1-3)GlcNAc(b1-2)Man(a1-6)]Man(b1-4)GlcNAc(b1-4)[Fuc(a1-6)]GlcNAc
# How it was run: as §1
# [20] = biological target: Fuc(a1-2)[Gal(a1-3)]Gal(b1-3)GlcNAc(b1-3)GalNAc
# How it was run: as §1
# [21] = biological target: Fuc(a1-2)[Gal(a1-3)]Gal(b1-3)GlcNAc(b1-6)GalNAc
# How it was run: as §1
# [22] = biological target: Fuc(a1-2)[Gal(a1-3)]Gal(b1-4)Glc
# How it was run: as §1
# [23] = biological target: Fuc(a1-2)[Gal(a1-3)]Gal(b1-4)GlcNAc
# How it was run: as §1
# [24] = biological target: Fuc(a1-2)[Gal(a1-3)]Gal(b1-4)GlcNAc(b1-2)Man
# How it was run: as §1
# [25] = biological target: Fuc(a1-2)[Gal(a1-3)]Gal(b1-4)GlcNAc(b1-2)Man(a1-3)[Fuc(a1-2)[Gal(a1-3)]Gal(b1-4)GlcNAc(b1-2)Man(a1-6)]Man(b1-4)GlcNAc(b1-4)GlcNAc
# How it was run: as §1
# [26] = biological target: Fuc(a1-2)[Gal(a1-3)]Gal(b1-4)GlcNAc(b1-2)Man(a1-3)[Fuc(a1-2)[Gal(a1-3)]Gal(b1-4)GlcNAc(b1-2)Man(a1-6)]Man(b1-4)GlcNAc(b1-4)[Fuc(a1-6)]GlcNAc
# How it was run: as §1
# [27] = biological target: Fuc(a1-2)[Gal(a1-3)]Gal(b1-4)GlcNAc(b1-3)GalNAc
# How it was run: as §1
# [28] = biological target: Fuc(a1-2)[Gal(a1-3)]Gal(b1-4)GlcNAc(b1-3)[Fuc(a1-2)[Gal(a1-3)]Gal(b1-4)GlcNAc(b1-6)]GalNAc
# How it was run: as §1
# [29] = biological target: Fuc(a1-2)[Gal(a1-3)]Gal(b1-4)GlcNAc(b1-6)GalNAc
# How it was run: as §1
# [30] = biological target: Fuc(a1-2)[Gal(a1-3)]Gal(b1-4)[Fuc(a1-3)]Glc
# How it was run: as §1
# [31] = biological target: Fuc(a1-2)[Gal(a1-3)]Gal(b1-4)[Fuc(a1-3)]GlcNAc
# How it was run: as §1
# [32] = biological target: Fuc(a1-2)[Gal(a1-3)]Gal(b1-4)[Fuc(a1-3)]GlcNAc(b1-3)GalNAc
# How it was run: as §1
# [33] = biological target: Fuc(a1-2)[Gal(a1-4)]Gal(b1-4)GlcNAc
# How it was run: as §1
# [34] = biological target: Fuc(a1-2)[GalNAc(a1-3)]Gal
# How it was run: as §1
# [35] = biological target: Fuc(a1-2)[GalNAc(a1-3)]Gal(b1-3)GalNAc(a1-3)[Fuc(a1-2)]Gal(b1-4)GlcNAc
# How it was run: as §1
binder,measurement,setting,value
B1,glycan array binding signal (z-score),[1],-0.327
same,glycan array binding signal (z-score),[2],-0.225
same,glycan array binding signal (z-score),[3],-0.327
same,glycan array binding signal (z-score),[4],-0.308
same,glycan array binding signal (z-score),[5],-0.286
same,glycan array binding signal (z-score),[6],-0.185
same,glycan array binding signal (z-score),[7],-0.138
same,glycan array binding signal (z-score),[8],-0.158
same,glycan array binding signal (z-score),[9],-0.277
same,glycan array binding signal (z-score),[10],-0.24
same,glycan array binding signal (z-score),[11],0.881
same,glycan array binding signal (z-score),[12],-0.247
same,glycan array binding signal (z-score),[13],-0.119
same,glycan array binding signal (z-score),[14],-0.199
same,glycan array binding signal (z-score),Fuc(a1-2)Gal6S(b1-4)Glc,0.03
same,glycan array binding signal (z-score),Fuc(a1-2)[Gal(a1-3)]Gal,0.049
same,glycan array binding signal (z-score),[15],-0.199
same,glycan array binding signal (z-score),[16],-0.255
same,glycan array binding signal (z-score),[17],-0.3
same,glycan array binding signal (z-score),[18],-0.082
same,glycan array binding signal (z-score),[19],-0.191
same,glycan array binding signal (z-score),[20],-0.353
same,glycan array binding signal (z-score),[21],0.184
same,glycan array binding signal (z-score),[22],0.071
same,glycan array binding signal (z-score),[23],-0.132
same,glycan array binding signal (z-score),[24],-0.08
same,glycan array binding signal (z-score),[25],1.1
same,glycan array binding signal (z-score),[26],0.011
same,glycan array binding signal (z-score),[27],-0.323
same,glycan array binding signal (z-score),[28],-0.265
same,glycan array binding signal (z-score),[29],-0.127
same,glycan array binding signal (z-score),[30],-0.106
same,glycan array binding signal (z-score),[31],-0.209
same,glycan array binding signal (z-score),[32],-0.22
same,glycan array binding signal (z-score),[33],0.298
same,glycan array binding signal (z-score),[34],-0.2
same,glycan array binding signal (z-score),[35],-0.095

# Part of the list above, with bars between the fields:
binder | measurement | setting | value
B1 | glycan array binding signal (z-score) | [9] | -0.277
same | glycan array binding signal (z-score) | Fuc(a1-2)Gal6S(b1-4)Glc | 0.03
same | glycan array binding signal (z-score) | [22] | 0.071
same | glycan array binding signal (z-score) | [24] | -0.08
same | glycan array binding signal (z-score) | [25] | 1.1
same | glycan array binding signal (z-score) | [27] | -0.323
same | glycan array binding signal (z-score) | [30] | -0.106
same | glycan array binding signal (z-score) | [32] | -0.22
same | glycan array binding signal (z-score) | [33] | 0.298
